Results deposited as PubChem BioAssay AID1259254 (NCATS, 2017).

Test: 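Genome-wide screen for genes that prevent DNA re-replication in cancer cells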 (primary screen)
Cell system: human HCT116 colorectal cancer cells
Reagents: single siRNA against human genes
Duration: 3 days
Read-out: 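Imaged Hoechst DNA stain sorts each cell into a cycle phase by DNA amount; per plate, G2 fraction set to 0% for non-targeting and 100% for GMNN siRNA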
Scale: G2 robust z-score and G2 cells, % of GMNN control: higher = more G2 cells, more excess DNA replication; raw share of cells in G2: higher = larger share of cells with G2 DNA content
Hit rule: 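Active siRNAs have a G2 robust z of 5 or more median absolute deviations over the median, which in these data means about 38% or higher of GMNN control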
The whole screen tested about 59,000 reagents; below is a random part of them. About 1,550 of all reagents (2.6%) were called active. 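G2 share is only a proxy for re-replication; each gene was hit by three separate siRNAs, and active genes were retested.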 Raw values vary from plate to plate and are shown uncorrected. Entries without a mark were called inactive. Reagents against one gene are numbered here. Not stated in the record: the amount of reagent.

no.	target gene	reagent no.	G2 robust z-score	G2 cells, % of GMNN control	raw share of cells in G2 (%)
1	IGF2BP2	1	0.829	8.8	9.52
2	IGF2BP2	2	-1	-4.07	2.53
3	IGF2BP2	3	-0.843	-2.96	5.31
4	MAF	1	-0.588	-1.17	4.91
5	MAF	2	-1.16	-5.21	1.48
6	MAF	3	-0.979	-3.92	3.92
7	RECQL	1	-0.361	0.427	5.13
8	RECQL	2	-0.016	2.86	5.77
9	RECQL	3	3.32	26.3	12.9
10	SLC4A5	1	4.09	31.7	15.7
11	SLC4A5	2	-0.117	2.14	6.53
12	SLC4A5	3	-0.748	-2.3	3.53
13	FOXL3-OT1	1	-1.05	-4.4	1.41
14	FOXL3-OT1	2	1.05	10.4	7
15	FOXL3-OT1	3	1.39	12.8	6.57
16	CYREN	1	-0.409	0.0893	4.62
17	CYREN	2	4.22	32.7	19.3
18	CYREN	3	0.507	6.54	4.42
19	SPAG4	1	0.905	9.34	8.82
20	SPAG4	2	0.838	8.86	7.58
21	SPAG4	3	-1.29	-6.12	1.93
22	SYNM	1	-0.484	-0.44	6.19
23	SYNM	2	-0.833	-2.89	3.19
24	SYNM	3	-0.698	-1.95	3.2
25	ELF2	1	-0.769	-2.44	2.49
26	ELF2	2	-0.358	0.449	5.06
27	ELF2	3	-0.117	2.15	3.89
28	LEMD3	1	2.29	19.1	11.6
29	LEMD3	2	0.601	7.2	7.06
30	LEMD3	3	0.466	6.25	5.48
31	MAP3K8	1	0.342	5.37	7.38
32	MAP3K8	2	1.76	15.3	10.6
33	MAP3K8	3	-0.309	0.792	4.3
34	HS3ST1	1	-0.483	-0.432	4.58
35	HS3ST1	2	4.89	37.4	19.3
36	HS3ST1	3	0.373	5.59	5.11
37	B3GALT6	1	-1.14	-5.05	3.33
38	B3GALT6	2	0.294	5.03	6.38
39	B3GALT6	3	-0.587	-1.17	4.47
40	LAYN	1	-0.988	-3.99	2.49
41	LAYN	2	-0.337	0.596	3.1
42	LAYN	3	-0.973	-3.88	1.72
43	LMTK2	1	0.124	3.84	6.78
44	LMTK2	2	-0.608	-1.31	4.71
45	LMTK2	3	0.0846	3.56	4.82
46	MYOCD	1	0.677	7.73	5.75
47	MYOCD	2	0.29	5	4.9
48	MYOCD	3	-0.221	1.41	4.02
49	ASPH	1	9.01 (active)	66.4	27.3
50	ASPH	2	0.158	4.08	6.53
51	ASPH	3	-0.263	1.11	4.41
52	PRRT2	1	2.32	19.3	11.8
53	PRRT2	2	-0.749	-2.31	2.64
54	PRRT2	3	-1.03	-4.29	0.566
55	ACSL4	1	0.875	9.12	8.55
56	ACSL4	2	2.18	18.3	12.2
57	ACSL4	3	0.0757	3.5	4.9
58	RBBP8	1	3.16	25.2	13.5
59	RBBP8	2	0.572	6.99	8.12
60	RBBP8	3	2.76	22.4	11.2
61	LRP3	1	11.7 (active)	85	39.2
62	LRP3	2	-0.667	-1.73	2.63
63	LRP3	3	-1.03	-4.3	3.7
64	E2F8	1	4.92	37.6	21.1
65	E2F8	2	-0.0926	2.32	5.03
66	E2F8	3	1.12	10.8	8.8
67	MINDY3	1	1.78	15.5	10.9
68	MINDY3	2	0.76	8.32	7.94
69	MINDY3	3	-0.62	-1.39	2
